## Results of single-concentration screens

From ChEMBL document CHEMBL3988442, “University of Dundee, Small-Polar-MMV Screening Library” (2021).

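Whole-parasite assay of Trypanosoma brucei over 72 hours; the read-out is not stated. Tested at 30 µM. The record gives no direction; compounds that gave an IC50 in retests scored well above the rest, so higher reads as stronger inhibition. Values scatter widely below zero; nearly all retest evidence comes from the higher of the two concentrations used. Of about 64,000 compounds tested this way, about 940 (1.5%) reached 50% or more in at least one test.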

Values are the deposited “Percent Effect”, in %.
The controls that fix the scale are not given in the record; negative values are as filed.
This is an unselected part of the compounds tested.

| Compound | effect |
|---|---|
| `O=C(NCCn1cccc1)c1c(O)cc(F)cc1F` | -9.547% |
| `Cc1nnc(Nc2cccc(C3CCN(Cc4ncc[nH]4)CC3)n2)s1` | -28.07% |
| `CCOCCNC(=O)Nc1ccc(OCc2noc(C3CC3)n2)cc1` | -39.66% |
| `CCn1c(N)nc2cc(C(=O)NCCNc3ncccc3C)cnc21` | -26.27% |
| `[H][C@@]12C[C@H](C(=O)N3CCCCO3)CN(C(=O)c3ccnnc3)[C@]1([H])CCO2` | -0.4393% |
| `COc1ccc(NC(=O)N2CCC(c3nnc[nH]3)CC2)cc1C` | -4.428% |
| `Cc1ccccc1CSc1nc(N)cc(N2CCCC(O)C2)n1` (centres undefined) | -29.79% |
| `Cc1nnsc1-c1nnc2sc(C3CCC3)nn12` | -3.806% |
| `Cc1cc(CC(=O)N2CCCC2c2nc(C(C)C)no2)on1` (centres undefined) | -11.64% |
| `CC(C)N1CCC(C(=O)N2CCc3c(nc(CC4CC4)[nH]c3=O)C2)CC1` | -26.11% |
| `COc1ccc2[nH]cc(-c3ccnc(N4CCC(C)CC4)n3)c2c1` | 23.49% |
| `Clc1cccc(-c2cccc(N3CCC(NC4CCOCC4)CC3)c2)c1` | 100.7% |
| `CN(CC1CCCCC1)C(=O)c1cn(C)nc1-c1cccnc1` | -20.56% |
| `O=C(O)C(F)(F)F.O=C1COC2(CCN(CC3CCC3)CC2)CN1c1cncnc1` | -35.36% |
| `COCCN1CCN(Cc2ccc(OCc3nccn3C)cc2)CC1` | 2.147% |
| `Cn1cc(C2(C)CN(Cc3ccc(O)c(Cl)c3)CCO2)cn1` (centres undefined) | -40.55% |
| `CN1CCN(C2CCN(CCOc3ccc(C#N)cc3)CC2)C1=O` | 2.7% |
| `CCn1ccnc1CN1CCCC1c1noc(C2CC2)n1` (centres undefined) | -24.26% |
| `CCCC(=O)N1CCCC(C(=O)c2cnn(-c3ccc(F)cc3)c2N)C1` (centres undefined) | 1.8% |
| `O=C(O)C(F)(F)F.O=C(O)C(F)(F)F.O=C(O)C(F)(F)F.[H][C@@]12CCN(Cc3ccncc3)C[C@]1([H])[C@@H](CN(C)Cc1ccco1)OC2` | -46.42% |
| `Cn1nc(C2CC2)cc1C(=O)N1CCC(c2nnsc2S(C)(=O)=O)CC1` | 9.029% |
| `OCCNc1nc(NCc2cccnc2)nc2nccnc12` | -1.985% |
| `CCC(C(=O)N1CCCN(CCN(C)C)CC1)N1CCCC1=O` (centres undefined) | 2.243% |
| `CC(=O)N1CCCC1c1cc(Nc2nnc(C)s2)nc(C)n1` (centres undefined) | -7.472% |
| `CC(=O)N1N=C(c2ccccc2)OC1C(=O)NCCOc1ccccc1` (centres undefined) | 3.445% |
| `CC1CCCN(CCNC(=O)c2cncnc2C(C)C)C1` (centres undefined) | 22.38% |
| `CC(C)(C)CC(=O)N1CCCC2(CC(C(=O)Nc3ccccc3)=NO2)C1` (centres undefined) | -69.07% |
| `Cc1nc(CSCCC(=O)NCc2ccc(-n3cncn3)nc2)cs1` | 14.64% |
| `O=C(NCC1COCc2c(-c3ccncc3)nnn2C1)[C@H]1CCCO1.O=C(O)C(F)(F)F` (some centres undefined) | -23.9% |
| `CCc1nnsc1C(=O)NCCn1nc2ccccn2c1=O` | 6.398% |
| `Cc1nc(C2CCCN2C(=O)COCCOc2ccccc2)no1` (centres undefined) | -13.6% |
| `CCN1CC(C(=O)N2CCC(Oc3ccccc3Cl)CC2)CC1=O` (centres undefined) | -63% |
| `O=C(c1cc(Cn2ccc3ccccc32)[nH]n1)N1CCCCC1CO` (centres undefined) | -43.45% |
| `CCCOC1CCCN(C(=O)c2csc(S(N)(=O)=O)c2)C1` (centres undefined) | -42.98% |
| `CC(C)n1ccnc1C1CCN(C(=O)c2ccccc2)CC1` | 13.07% |
| `Cc1cc(C(=O)N[C@@H]2CCNC[C@H]2O)ccc1Cl` | 4.959% |
| `Cc1nc2c(c(N3CCC4(CCCNC4=O)C3)n1)CCC2` (centres undefined) | -21.25% |
| `Cc1cnc2n(c1=O)CC(C(=O)Nc1ccccc1Cl)CS2` (centres undefined) | 20.31% |
| `Cc1ncc(CNC(=O)CCc2cccc(F)c2)c(C2CCCN2C)n1` (centres undefined) | -0.0897% |
| `Cc1ccc(C)c(Oc2ccc(CNC(=O)C3CCC(=O)N3)cn2)c1` (centres undefined) | -21.89% |
| `CCC(C)CNC(=O)[C@@H]1CCCN1c1nccc(Nc2ccccc2)n1` (some centres undefined) | 0.969% |
| `CN(Cc1ccccc1)C(=O)CN1CCCCC1Cn1cncn1` (centres undefined) | -14.7% |
| `NC(=O)CSc1nnc2[nH]c(=O)c3c(n12)CCCC3` | 5.046% |
| `Cc1cc(N2CCN(C(=O)C(C)n3ccnc3C(C)C)CC2)cc(C)n1` (centres undefined) | -26.06% |
| `Fc1ccc(CN2CCc3ncnc(C4CCOC4)c3CC2)cc1.O=C(O)C(F)(F)F` (centres undefined) | -2.53% |
| `O=C(Nc1cc(-c2ccncc2)no1)C1CCC1` | 19.05% |
| `[H][C@]12CN(CC3CC3)C(=O)[C@@]1([H])CN(c1ncc(F)cn1)C2` | -54.21% |
| `Cn1nccc1CNC(=O)Cn1nc(C(F)(F)F)cc1C1CC1` | -10.59% |
| `COc1cccc(-n2c(SCC(=O)O)nnc2-c2cn[nH]c2)c1` | -6.064% |
| `CS(=O)(=O)NC1CCCN(c2ccc(C#N)cn2)C1` (centres undefined) | -4.012% |
| `O=C(O)C(F)(F)F.O=C(O)C(F)(F)F.[H][C@@]12CN(CCOC)C[C@]1([H])[C@@H](OC)CCN2Cc1ccco1` | -13.32% |
| `CCc1nc(CN2CCCN(c3nn4cc(C)nc4s3)CC2)no1` | -1.059% |
| `N#Cc1ccc2c(c1)CN(C(=O)c1nc[nH]n1)C2c1cnco1` (centres undefined) | -59.73% |
| `Cc1nc(C)n(CC2CN(Cc3ccncc3)Cc3nccn3C2)n1.O=C(O)C(F)(F)F.O=C(O)C(F)(F)F` (centres undefined) | -105% |
| `N#Cc1cccc(C(=O)N2CCN(c3ncccn3)CC2)c1` | -30.44% |
| `CCN(Cc1cccc(NC(=O)COC)c1)C(C)=O` | -19.54% |
| `Cc1cccc(CNCc2c(C(C)C)nn(C)c2N2CCOCC2)n1` | -38.64% |
| `CCN(CC)C(=O)CCNC(=O)c1c[nH]c2ccc(OC)cc12` | 9.072% |
| `CC(C)NC(=O)N1CCCC2(CCN(c3ccccc3)C2=O)C1` (centres undefined) | -7.891% |
| `CC(C)NC(=O)c1n[nH]c(-n2cnnc2)n1` | 27.59% |

Some entries from above, unchanged:

Compound,effect
CC(C)n1ccnc1C1CCN(C(=O)c2ccccc2)CC1,13.07%
CC(=O)N1N=C(c2ccccc2)OC1C(=O)NCCOc1ccccc1 (centres undefined),3.445%
CC1CCCN(CCNC(=O)c2cncnc2C(C)C)C1 (centres undefined),22.38%
O=C(O)C(F)(F)F.O=C(O)C(F)(F)F.[H][C@@]12CN(CCOC)C[C@]1([H])[C@@H](OC)CCN2Cc1ccco1,-13.32%
CN(Cc1ccccc1)C(=O)CN1CCCCC1Cn1cncn1 (centres undefined),-14.7%
CS(=O)(=O)NC1CCCN(c2ccc(C#N)cn2)C1 (centres undefined),-4.012%